Assay results reported in PMC7198626.
Results are given in words; binding and its absence hold for the method and conditions named. Some results given as binding are weak or reduced against the parent protein; the word gives no strength.

Molecular target: sarcoplasmic/endoplasmic reticulum calcium-ATPase 2a (SERCA2a), endogenous in mouse heart (mouse (endogenous in mouse heart)), O55143
Experiment: western blot of high molecular weight (oligomeric) species; heart lysates of Speg3A-knockin mice and WT littermates (7-month-old); oligomerization of endogenous SERCA2a by western blot, quantified
Conditions: remark: other sources report otherwise

B1: sarcoplasmic/endoplasmic reticulum calcium-ATPase 2a (SERCA2a), endogenous in mouse heart, O55143-2 1-998 (enzyme)
chain: MENAHTKTVEEVLGHFGVNESTGLSLEQVKKLKERWGSNELPAEEGKTLLELVIEQFEDLLVRILLLAACISFVLAWFEEGEETITAFVEPFVILLILVANAIVGVWQERNAENAIEALKEYEPEMGKVYRQDRKSVQRIKAKDIVPGDIVEIAVGDKVPADIRLTSIKSTTLRVDQSILTGESVSVIKHTDPVPDPRAVNQDKKNMLFSGTNIAAGKAMGVVVATGVNTEIGKIRDEMVATEQERTPLQQKLDEFGEQLSKVISLICIAVWIINIGHFNDPVHGGSWIRGAIYYFKIAVALAVAAIPEGLPAVITTCLALGTRRMAKKNAIVRSLPSVETLGCTSVICSDKTGTLTTNQMSVCRMFILDKVEGDTCSLNEFSITGSTYAPIGEVQKDDKPVKCHQYDGLVELATICALCNDSALDYNEAKGVYEKVGEATETALTCLVEKMNVFDTELKGLSKIERANACNSVIKQLMKKEFTLEFSRDRKSMSVYCTPNKPSRTSMSKMFVKGAPEGVIDRCTHIRVGSTKVPMTPGVKQKIMSVIREWGSGSDTLRCLALATHDNPLKREEMHLEDSANFIKYETNLTFVGCVGMLDPPRIEVASSVKLCRQAGIRVIMITGDNKGTAVAICRRIGIFGQDEDVTSKAFTGREFDELSPSAQRDACLNARCFARVEPSHKSKIVEFLQSFDEITAMTGDGVNDAPALKKSEIGIAMGSGTAVAKTASEMVLADDNFSTIVAAVEEGRAIYNNMKQFIRYLISSNVGEVVCIFLTAALGFPEALIPVQLLWVNLVTDGLPATALGFNPPDLDIMNKPPRNPKEPLISGWLFFRYLAIGCYVGAATVGAAAWWFIAADGGPRVSFYQLSHFLQCKEDNPDFDGVDCAIFESPYPMTMALSVLVTIEMCNALNSLSENQSLLRMPPWENIWLVGSICLSMSLHFLILYVEPLPLIFQITPLNLTQWLMVLKISLPVILMDETLKFVARNYLEQPAILE
- binding: binds
